Laboratory results reported in the supplement of paper PMC12819154, “High-throughput peptide-centric local stability assay extends protein–ligand identification to membrane proteins, tissues and bacteria” (Nature Structural & Molecular Biology, 2025).
The list shows a part of the results. Small differences around the control level are noise.

Amino acid sequences for entries named in this document (tags omitted). A change or cut given only in a name is not applied to a line headed by its entry.
UniProt Q9DCZ4: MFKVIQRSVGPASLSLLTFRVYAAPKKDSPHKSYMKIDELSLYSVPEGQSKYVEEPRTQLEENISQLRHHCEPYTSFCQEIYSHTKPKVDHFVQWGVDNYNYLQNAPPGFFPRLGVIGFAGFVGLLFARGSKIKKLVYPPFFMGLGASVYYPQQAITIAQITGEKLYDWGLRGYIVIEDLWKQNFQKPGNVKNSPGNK
UniProt Q9JK92: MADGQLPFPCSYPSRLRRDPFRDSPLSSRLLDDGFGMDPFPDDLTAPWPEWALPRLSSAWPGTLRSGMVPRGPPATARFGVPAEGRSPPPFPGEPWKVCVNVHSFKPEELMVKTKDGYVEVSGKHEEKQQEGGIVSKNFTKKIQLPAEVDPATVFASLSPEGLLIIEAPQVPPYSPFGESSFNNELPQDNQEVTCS
UniProt Q9QUJ7: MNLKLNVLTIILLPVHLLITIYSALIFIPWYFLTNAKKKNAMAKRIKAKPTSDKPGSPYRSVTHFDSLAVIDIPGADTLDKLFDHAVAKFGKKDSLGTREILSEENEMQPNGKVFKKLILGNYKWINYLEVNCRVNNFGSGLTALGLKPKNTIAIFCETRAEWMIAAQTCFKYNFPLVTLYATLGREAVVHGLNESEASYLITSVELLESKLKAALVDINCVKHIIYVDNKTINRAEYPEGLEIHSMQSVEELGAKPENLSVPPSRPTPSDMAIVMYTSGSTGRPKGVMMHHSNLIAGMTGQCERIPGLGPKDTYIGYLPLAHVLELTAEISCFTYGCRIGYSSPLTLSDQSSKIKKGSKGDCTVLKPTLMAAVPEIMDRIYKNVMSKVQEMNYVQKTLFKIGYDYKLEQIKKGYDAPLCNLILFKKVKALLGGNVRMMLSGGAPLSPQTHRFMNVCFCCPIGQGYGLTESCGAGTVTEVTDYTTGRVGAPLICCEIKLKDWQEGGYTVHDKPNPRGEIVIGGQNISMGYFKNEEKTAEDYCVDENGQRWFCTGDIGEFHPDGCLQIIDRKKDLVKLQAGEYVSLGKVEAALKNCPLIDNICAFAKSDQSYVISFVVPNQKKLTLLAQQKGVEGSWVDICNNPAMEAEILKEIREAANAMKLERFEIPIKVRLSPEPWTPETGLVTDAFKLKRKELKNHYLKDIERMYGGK
UniProt Q9QUR6: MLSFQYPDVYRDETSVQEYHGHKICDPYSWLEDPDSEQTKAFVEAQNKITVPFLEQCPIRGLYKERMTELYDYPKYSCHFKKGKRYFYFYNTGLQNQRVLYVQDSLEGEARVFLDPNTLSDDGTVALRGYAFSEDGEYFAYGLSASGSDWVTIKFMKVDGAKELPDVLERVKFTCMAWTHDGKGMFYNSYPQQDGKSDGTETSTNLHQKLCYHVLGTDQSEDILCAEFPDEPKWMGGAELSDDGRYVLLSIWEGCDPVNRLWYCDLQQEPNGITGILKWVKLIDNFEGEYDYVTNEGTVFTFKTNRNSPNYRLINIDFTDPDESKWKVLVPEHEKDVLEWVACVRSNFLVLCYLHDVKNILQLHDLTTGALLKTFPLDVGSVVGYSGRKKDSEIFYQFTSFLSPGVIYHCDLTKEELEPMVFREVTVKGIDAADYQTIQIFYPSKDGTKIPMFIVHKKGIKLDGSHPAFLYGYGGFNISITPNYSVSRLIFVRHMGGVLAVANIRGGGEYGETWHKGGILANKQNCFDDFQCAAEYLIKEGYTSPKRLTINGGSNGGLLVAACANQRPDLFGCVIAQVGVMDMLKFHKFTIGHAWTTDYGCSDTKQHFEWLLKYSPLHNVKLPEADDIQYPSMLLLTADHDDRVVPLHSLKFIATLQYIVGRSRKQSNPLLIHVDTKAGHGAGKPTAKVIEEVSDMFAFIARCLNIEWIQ
UniProt Q9EQH2: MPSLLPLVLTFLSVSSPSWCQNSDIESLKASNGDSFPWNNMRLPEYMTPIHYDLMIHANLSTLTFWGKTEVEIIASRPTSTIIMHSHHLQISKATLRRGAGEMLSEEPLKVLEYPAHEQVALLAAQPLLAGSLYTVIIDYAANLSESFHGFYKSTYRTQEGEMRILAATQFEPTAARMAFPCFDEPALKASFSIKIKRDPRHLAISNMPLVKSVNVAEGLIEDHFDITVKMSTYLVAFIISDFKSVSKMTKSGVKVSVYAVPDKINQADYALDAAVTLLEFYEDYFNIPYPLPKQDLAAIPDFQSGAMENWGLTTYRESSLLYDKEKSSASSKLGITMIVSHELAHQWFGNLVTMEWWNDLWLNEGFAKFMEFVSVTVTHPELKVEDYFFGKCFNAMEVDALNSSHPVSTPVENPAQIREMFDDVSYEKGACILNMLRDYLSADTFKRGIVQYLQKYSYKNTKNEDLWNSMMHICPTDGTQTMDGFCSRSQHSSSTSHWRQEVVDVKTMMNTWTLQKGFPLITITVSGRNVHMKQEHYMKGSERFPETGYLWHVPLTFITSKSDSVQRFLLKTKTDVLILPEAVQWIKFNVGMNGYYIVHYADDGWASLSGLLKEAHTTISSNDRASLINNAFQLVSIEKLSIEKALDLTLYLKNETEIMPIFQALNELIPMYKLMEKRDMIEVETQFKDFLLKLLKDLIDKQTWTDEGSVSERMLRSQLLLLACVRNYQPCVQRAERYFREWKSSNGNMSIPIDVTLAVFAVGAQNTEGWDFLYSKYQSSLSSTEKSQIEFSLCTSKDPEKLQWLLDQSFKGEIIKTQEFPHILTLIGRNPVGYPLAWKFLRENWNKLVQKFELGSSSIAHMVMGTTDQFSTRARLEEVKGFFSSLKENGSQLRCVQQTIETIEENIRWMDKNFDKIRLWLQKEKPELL
UniProt Q9DC70, whole entry: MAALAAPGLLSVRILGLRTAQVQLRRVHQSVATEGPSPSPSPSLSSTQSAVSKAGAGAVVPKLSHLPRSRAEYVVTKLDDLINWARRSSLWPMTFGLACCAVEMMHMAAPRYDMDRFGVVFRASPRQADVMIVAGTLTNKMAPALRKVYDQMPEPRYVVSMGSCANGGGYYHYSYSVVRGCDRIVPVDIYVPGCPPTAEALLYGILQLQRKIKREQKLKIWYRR
UniProt Q9JK53: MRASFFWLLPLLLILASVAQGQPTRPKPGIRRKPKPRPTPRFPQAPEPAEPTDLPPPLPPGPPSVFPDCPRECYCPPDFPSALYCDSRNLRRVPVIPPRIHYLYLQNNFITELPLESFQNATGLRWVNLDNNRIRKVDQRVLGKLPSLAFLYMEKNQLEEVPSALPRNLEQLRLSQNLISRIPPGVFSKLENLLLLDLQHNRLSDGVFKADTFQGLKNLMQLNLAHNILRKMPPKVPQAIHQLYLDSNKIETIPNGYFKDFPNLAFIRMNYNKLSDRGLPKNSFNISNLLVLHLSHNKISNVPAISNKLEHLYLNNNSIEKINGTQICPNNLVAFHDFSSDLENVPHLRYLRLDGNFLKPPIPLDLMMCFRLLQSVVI
UniProt Q9JKP5: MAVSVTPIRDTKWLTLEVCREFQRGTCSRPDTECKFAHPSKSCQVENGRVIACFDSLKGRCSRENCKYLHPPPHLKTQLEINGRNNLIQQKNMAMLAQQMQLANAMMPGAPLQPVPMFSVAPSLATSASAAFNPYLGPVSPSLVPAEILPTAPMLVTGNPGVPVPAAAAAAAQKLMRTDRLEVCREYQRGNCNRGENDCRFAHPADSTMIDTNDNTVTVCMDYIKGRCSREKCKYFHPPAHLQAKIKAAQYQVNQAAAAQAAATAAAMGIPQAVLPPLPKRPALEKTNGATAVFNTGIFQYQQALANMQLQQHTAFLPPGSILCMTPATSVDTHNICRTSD
UniProt Q9JLF6: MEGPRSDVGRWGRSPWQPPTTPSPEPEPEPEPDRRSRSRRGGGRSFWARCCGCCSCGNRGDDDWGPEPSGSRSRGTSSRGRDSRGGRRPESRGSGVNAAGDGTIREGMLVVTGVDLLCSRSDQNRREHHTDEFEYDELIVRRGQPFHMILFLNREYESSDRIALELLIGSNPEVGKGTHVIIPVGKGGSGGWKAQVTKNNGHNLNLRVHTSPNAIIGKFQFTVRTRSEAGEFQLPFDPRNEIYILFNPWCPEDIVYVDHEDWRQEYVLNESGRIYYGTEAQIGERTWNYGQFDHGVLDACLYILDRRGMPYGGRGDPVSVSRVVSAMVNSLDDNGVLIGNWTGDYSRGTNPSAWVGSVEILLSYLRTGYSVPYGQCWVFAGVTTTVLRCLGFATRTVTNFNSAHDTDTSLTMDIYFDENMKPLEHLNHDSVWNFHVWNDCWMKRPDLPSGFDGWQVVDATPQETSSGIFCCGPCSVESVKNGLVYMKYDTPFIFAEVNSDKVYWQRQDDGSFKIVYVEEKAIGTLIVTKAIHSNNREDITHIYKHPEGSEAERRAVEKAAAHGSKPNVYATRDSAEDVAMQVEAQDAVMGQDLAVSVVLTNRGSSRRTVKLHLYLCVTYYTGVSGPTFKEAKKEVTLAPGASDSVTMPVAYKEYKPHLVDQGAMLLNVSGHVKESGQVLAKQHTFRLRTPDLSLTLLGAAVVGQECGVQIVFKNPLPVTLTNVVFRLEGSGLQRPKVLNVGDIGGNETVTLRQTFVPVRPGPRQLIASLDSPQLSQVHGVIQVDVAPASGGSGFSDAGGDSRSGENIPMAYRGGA
UniProt Q9DCM0: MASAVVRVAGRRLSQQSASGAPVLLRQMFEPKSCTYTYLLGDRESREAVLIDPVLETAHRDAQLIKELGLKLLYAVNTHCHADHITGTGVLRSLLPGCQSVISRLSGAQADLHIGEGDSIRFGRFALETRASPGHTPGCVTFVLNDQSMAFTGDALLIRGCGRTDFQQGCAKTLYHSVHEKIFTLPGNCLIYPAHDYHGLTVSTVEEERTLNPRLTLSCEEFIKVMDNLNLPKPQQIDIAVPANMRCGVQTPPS
UniProt Q9JHI7, whole entry: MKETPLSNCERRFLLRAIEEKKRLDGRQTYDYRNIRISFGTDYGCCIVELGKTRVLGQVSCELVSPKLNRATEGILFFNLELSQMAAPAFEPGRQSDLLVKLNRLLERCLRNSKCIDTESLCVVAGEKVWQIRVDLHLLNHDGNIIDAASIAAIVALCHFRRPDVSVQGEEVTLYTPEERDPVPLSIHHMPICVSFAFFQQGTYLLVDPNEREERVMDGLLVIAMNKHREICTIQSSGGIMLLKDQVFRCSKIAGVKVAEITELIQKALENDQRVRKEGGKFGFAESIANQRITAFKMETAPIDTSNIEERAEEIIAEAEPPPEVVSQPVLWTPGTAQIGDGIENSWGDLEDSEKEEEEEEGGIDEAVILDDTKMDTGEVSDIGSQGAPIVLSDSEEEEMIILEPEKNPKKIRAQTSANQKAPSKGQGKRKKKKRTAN
UniProt Q9JLM9, whole entry: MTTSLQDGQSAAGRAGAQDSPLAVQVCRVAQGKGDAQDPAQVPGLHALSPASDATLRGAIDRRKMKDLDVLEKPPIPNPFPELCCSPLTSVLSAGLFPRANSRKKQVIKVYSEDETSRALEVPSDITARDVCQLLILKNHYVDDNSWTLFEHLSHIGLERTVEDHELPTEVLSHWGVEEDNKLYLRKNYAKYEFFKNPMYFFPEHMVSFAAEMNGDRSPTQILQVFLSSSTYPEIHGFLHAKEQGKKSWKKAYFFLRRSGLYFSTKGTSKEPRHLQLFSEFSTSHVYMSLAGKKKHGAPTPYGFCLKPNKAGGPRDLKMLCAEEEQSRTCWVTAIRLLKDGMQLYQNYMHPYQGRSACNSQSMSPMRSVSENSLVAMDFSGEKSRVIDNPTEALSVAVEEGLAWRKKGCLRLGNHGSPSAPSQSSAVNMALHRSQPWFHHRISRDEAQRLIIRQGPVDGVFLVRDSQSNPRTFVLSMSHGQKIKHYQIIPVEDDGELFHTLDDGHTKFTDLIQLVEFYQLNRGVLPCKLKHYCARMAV
UniProt Q9JHX2: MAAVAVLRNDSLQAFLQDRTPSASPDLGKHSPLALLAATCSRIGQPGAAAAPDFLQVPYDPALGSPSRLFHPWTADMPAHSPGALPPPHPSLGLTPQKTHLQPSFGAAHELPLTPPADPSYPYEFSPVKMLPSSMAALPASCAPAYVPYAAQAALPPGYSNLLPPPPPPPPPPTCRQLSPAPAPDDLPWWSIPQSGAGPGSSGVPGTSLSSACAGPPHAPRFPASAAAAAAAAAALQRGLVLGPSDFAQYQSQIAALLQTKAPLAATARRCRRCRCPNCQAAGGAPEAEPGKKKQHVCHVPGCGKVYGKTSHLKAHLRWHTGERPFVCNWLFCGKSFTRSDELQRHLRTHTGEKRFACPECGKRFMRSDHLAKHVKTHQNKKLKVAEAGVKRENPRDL
UniProt Q9DC69, whole entry: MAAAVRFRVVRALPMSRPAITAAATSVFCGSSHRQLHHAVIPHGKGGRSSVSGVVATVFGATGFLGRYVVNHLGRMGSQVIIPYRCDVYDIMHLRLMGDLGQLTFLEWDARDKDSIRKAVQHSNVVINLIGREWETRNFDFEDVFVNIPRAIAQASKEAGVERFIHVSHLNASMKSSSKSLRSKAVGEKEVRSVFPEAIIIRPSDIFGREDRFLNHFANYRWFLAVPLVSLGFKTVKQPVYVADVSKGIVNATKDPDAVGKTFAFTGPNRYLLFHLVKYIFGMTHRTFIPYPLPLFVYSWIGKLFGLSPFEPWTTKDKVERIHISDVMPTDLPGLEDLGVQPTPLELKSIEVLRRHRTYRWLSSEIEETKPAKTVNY

compound: CN[C@@H]1C[C@H]2O[C@@](C)([C@@H]1OC)n1c3ccccc3c3c4c(c5c6ccccc6n2c5c31)C(=O)NC4 [staurosporine]; test: log2 fold change of pooled soluble protein (PISA), ligand vs vehicle (log2 ratio); higher = more thermally stabilized; details: ligand concentration: 20 uM; assay format: PISA pool 52.9/55.5/58.6 C

Row | Target | log2 fold change of pooled soluble protein
1 | UniProt Q9DCZ4 | 0.134
2 | UniProt Q9QUH0 | 0.016
3 | UniProt Q9DCC8 | -0.0884
4 | UniProt Q9JK92 | -0.00872
5 | UniProt Q9JHH9 | 0.097
6 | UniProt Q9QXX4 | 0.0413
7 | UniProt Q9DCQ2 | -0.12
8 | UniProt Q9QUJ7 | 0.147
9 | UniProt Q9DCW4 | -0.0956
10 | UniProt Q9ERY9 | -0.185
11 | UniProt Q9ERK4 | -0.132
12 | UniProt Q9EPQ7 | 0.0531
13 | UniProt Q9QUR6 | -0.111
14 | UniProt Q9EQH2 | 0.108
15 | UniProt Q9JK23 | 0.178
16 | UniProt Q9QYB8 | 0.135
17 | UniProt Q9DC70 | 0.0637
18 | UniProt Q9QY76 | -0.036
19 | UniProt Q9JK53 | -0.157

Some of the entries so far, as a markdown table.

| Row | Target | log2 fold change of pooled soluble protein |
| --- | --- | --- |
| 12 | UniProt Q9EPQ7 | 0.0531 |
| 13 | UniProt Q9QUR6 | -0.111 |
| 14 | UniProt Q9EQH2 | 0.108 |
| 15 | UniProt Q9JK23 | 0.178 |
| 16 | UniProt Q9QYB8 | 0.135 |
| 17 | UniProt Q9DC70 | 0.0637 |
| 18 | UniProt Q9QY76 | -0.036 |
| 19 | UniProt Q9JK53 | -0.157 |

Following part:

Row | Target | log2 fold change of pooled soluble protein
20 | UniProt Q9EQ32 | -0.501
21 | UniProt Q9JKP5 | -0.0229
22 | UniProt Q9QYF1 | 0.00421
23 | UniProt Q9QWW1 | -0.00632
24 | UniProt Q9JLF6 | 0.0343
25 | UniProt Q9JHR7 | -0.0217
26 | UniProt Q9JIY5 | -0.199
27 | UniProt Q9DCM0 | -0.0335
28 | UniProt Q9JHS9 | 0.0569
29 | UniProt Q9JM13 | 0.0652
30 | UniProt Q9JHI7 | -0.122
31 | UniProt Q9JLM9 | -0.165
32 | UniProt Q9JHX2 | -0.137
33 | UniProt Q9JM62 | -0.121
34 | UniProt Q9DC69 | -0.106
35 | UniProt Q9QY30 | 0.00161
36 | UniProt Q9ESP1 | 0.0698
37 | UniProt Q9DCH6 | -0.105
